Measured data: PubChem BioAssay AID686937 (Drosophila RNAi Screening Center, 2013)
The screen tested about 23,000 reagents; shown is an unselected part of those with a known target gene and a result. 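Reduced-secretion tags in replicate 1 do not always agree with the z-scores; no criterion for assigning the tags was given.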 The numbers tell different reagents against one gene apart. A plus sign joins genes that one reagent is predicted to hit. Not all columns of the deposit are shown. Reagent sequences are not shown. Not stated in the record: the amount of reagent.

Assay: 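Genes in the fly needed for secretion of protein constitutively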 (primary screen)
Cell system: Drosophila S2 cells expressing secreted horseradish peroxidase
Reagent: long dsRNA against Drosophila genes
Timing: about 5.5 days (5 days dsRNA, then 12 h reporter induction)
Challenge: reporter expression induced after 5 days of dsRNA, read 12 h later; inducer not stated
Measurement: 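Chemiluminescent measurement of peroxidase in the medium 12 h after reporter induction, following 5 days of dsRNA, given as a z-score per plate; higher means more secretion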
Direction: z-score: higher = more reporter secreted into medium

CG33080 #1
- z-score, replicate 1: 0.38

CG33080 #2
- z-score, replicate 1: 0.38

CG33080 #3
- z-score, replicate 1: 0.26

CG2533
- z-score, replicate 1: 0.48

CG17732
- z-score, replicate 1: 0.23

Lrt (Leucine-rich tendon-specific protein)
- z-score, replicate 1: 0.36

Gart (GART trifunctional enzyme)
- z-score, replicate 1: 0.03

CG10031
- z-score, replicate 1: -0.02

CG14115
- z-score, replicate 1: -0.15

side-II (sidestep II) #1
- z-score, replicate 1: 0.48

side-II (sidestep II) #2
- z-score, replicate 1: 0.71

side-II (sidestep II) #3
- z-score, replicate 1: 0.24

side-II (sidestep II) #4
- z-score, replicate 1: 0.24

side-II (sidestep II) #5
- z-score, replicate 1: 0.64

side-II (sidestep II) #6
- z-score, replicate 1: 1.26

CG12942
- z-score, replicate 1: 0.16

LeuRS (Leucyl-tRNA synthetase)
- z-score, replicate 1: -0.99

CG7857
- z-score, replicate 1: 0.1

CG5883
- z-score, replicate 1: 0.47

CG13155
- z-score, replicate 1: 0.45

Mipp1 (Multiple inositol polyphosphate phosphatase 1)
- z-score, replicate 1: 0.24

Dbp45A (DEAD box protein 45A)
- z-score, replicate 1: 0.05

Camp (Cathelicidin-like antimicrobial protein)
- z-score, replicate 1: 0.44

CG3306
- z-score, replicate 1: 0.27

CG13117
- z-score, replicate 1: 0.58

bur (burgundy)
- z-score, replicate 1: 0.24

Cht8 (Chitinase 8)
- z-score, replicate 1: 0.14

CG31954
- z-score, replicate 1: 0.26

CG14736
- z-score, replicate 1: 0.31

park (parkin)
- z-score, replicate 1: 0.09

GramD1B (GRAM domain containing 1B) #1
- z-score, replicate 1: -0.15

GramD1B (GRAM domain containing 1B) #2
- z-score, replicate 1: 0.7

CG10598
- z-score, replicate 1: -0.24

CG14711 + Zaf1
- z-score, replicate 1: -0.05

Ype (Yippee)
- z-score, replicate 1: 0.48

CG5676
- z-score, replicate 1: -0.11

mthl8 (methuselah-like 8) #1
- z-score, replicate 1: 0.36

mthl8 (methuselah-like 8) #2
- z-score, replicate 1: 0.44

Rab3
- z-score, replicate 1: 0.37

Dbp73D (Dead box protein 73D)
- z-score, replicate 1: 0.39

Nepl10 (Neprilysin-like 10)
- z-score, replicate 1: 0.68

Osi6 (Osiris 6)
- z-score, replicate 1: 0.03

CG16758 #1
- z-score, replicate 1: 0.07

CG16758 #2
- z-score, replicate 1: 0.2

CG8136
- z-score, replicate 1: 0.27

yellow-g
- z-score, replicate 1: 0.16

Cbp53E (Calbindin 53E)
- z-score, replicate 1: 0.39

Osi11 (Osiris 11)
- z-score, replicate 1: 0.42

CG30195
- z-score, replicate 1: 0.2

TwdlF (TweedleF)
- z-score, replicate 1: 0.31

Rpn3 (Regulatory particle non-ATPase 3)
- z-score, replicate 1: -6.72

Reformatted: 5 of the entries above.
CG10031 → z-score, replicate 1: -0.02
CG14115 → z-score, replicate 1: -0.15
side-II (sidestep II) #1 → z-score, replicate 1: 0.48
side-II (sidestep II) #2 → z-score, replicate 1: 0.71
side-II (sidestep II) #3 → z-score, replicate 1: 0.24
